According to PubChem BioAssay AID1671190 (National Center for Advancing Translational Sciences (NCATS), 2021):
Among all 580,000 compounds or so, about 6,100 (1.1%) were called active. The inconclusive results got no clear call from the source; some entries with a clear call stand among them for comparison. Calls follow the shape of the dose curve; as a rule, active = well fitted inhibition curve with a large enough effect; inconclusive = small, poorly fitted or top-dose-only effect, or another doubt; inactive = no such curve, though single readings can be large or run the other way. Where the call is inconclusive, the potency comes from a doubtful curve fit.

Protein sequences, listed by entry. Tags and fused reporters are not part of them.
UniProt P18054, whole entry, looked up: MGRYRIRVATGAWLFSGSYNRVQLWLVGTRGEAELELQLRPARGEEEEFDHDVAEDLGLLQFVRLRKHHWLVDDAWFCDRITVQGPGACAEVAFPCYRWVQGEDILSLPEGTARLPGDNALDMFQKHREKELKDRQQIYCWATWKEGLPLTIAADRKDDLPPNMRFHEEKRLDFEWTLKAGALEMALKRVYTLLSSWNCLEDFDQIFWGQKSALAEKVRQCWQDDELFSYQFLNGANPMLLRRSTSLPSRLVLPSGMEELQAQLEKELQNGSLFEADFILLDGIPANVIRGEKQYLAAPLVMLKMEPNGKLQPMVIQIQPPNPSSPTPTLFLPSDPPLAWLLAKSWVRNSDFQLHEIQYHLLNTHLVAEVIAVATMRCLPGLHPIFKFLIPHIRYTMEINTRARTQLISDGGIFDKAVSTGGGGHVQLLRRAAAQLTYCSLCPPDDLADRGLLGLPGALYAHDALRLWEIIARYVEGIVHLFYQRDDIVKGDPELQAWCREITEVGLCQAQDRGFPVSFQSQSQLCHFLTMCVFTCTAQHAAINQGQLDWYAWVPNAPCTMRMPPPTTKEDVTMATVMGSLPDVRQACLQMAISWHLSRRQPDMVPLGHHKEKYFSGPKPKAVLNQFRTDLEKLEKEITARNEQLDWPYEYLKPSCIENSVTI

Molecular target: Polyunsaturated fatty acid lipoxygenase ALOX12 (Homo sapiens) (UniProt P18054)
Assay: Primary qHTS assay for inhibitors of human arachidonate 12S-lipoxygenase (ALOX12): Round 2
Details: purified 12hLO, xylenol orange hydroperoxide absorbance
Procedure, shortened: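 Purified human 12hLO (150 nM final) in 25 mM Hepes, 0.01% Triton X-100, pH 7.0 was preincubated 15 min at room temperature with compound. Then 40 uM arachidonic acid was added, 30 min. Hydroperoxide was read by Fe-XO absorbance ratio 573/405 nm.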

[1] = activity change, negative = inhibition: at 108 µM (top of the series) unless noted
% is scaled to controls: 0 for no effect and ±100 for the full control effect; potency is read from the fitted curve at half-maximal effect.

SMILES: Cc1nc2ccc(Cl)cc2cc1C(=O)NCC(=O)N1CCCCC1
- Potency [1]: inactive

SMILES: Cc1c(C(=O)O)oc2c(C)cccc12
- Potency [1]: inconclusive: 44.7 µM [inhibitor, partial curve, poor fit]

SMILES: Cc1cccc(N2CCN(C(=O)c3cccc(-n4c(C)nc5cccnc54)c3)CC2C)c1 (stereo unspecified)
- Potency [1]: inconclusive: 158 µM [inhibitor, partial curve, poor fit]

SMILES: Cc1cc(C)cc(NC(=O)Nc2c[nH]c(=O)[nH]c2=O)c1
- Potency [1]: inconclusive: 28.2 µM [inhibitor, single point]

SMILES: Cc1ccc(C2=NN(C(=O)CCC(=O)O)C(c3cn(-c4ccccc4)nc3-c3ccc(C)cc3)C2)cc1 (stereo unspecified)
- Potency [1]: inactive

SMILES: O=C(OCC(O)C(O)COC(=O)c1ccccc1)c1ccccc1 (stereo unspecified)
- Potency [1]: inconclusive: 112 µM [inhibitor, single point]

SMILES: CCOc1ccc(C(C)=O)cc1COC(=O)c1ccc(C(N)=O)cc1
- Potency [1]: inconclusive: 224 µM [inhibitor, partial curve, poor fit]

SMILES: COc1ccccc1/C=C/C=C(/C#N)C(=O)Nc1ccccc1C(=O)O
- Potency [1]: active: 7.08 µM

SMILES: CN1c2cc(C(=O)NCc3ccc(Cl)cc3)ccc2C(=O)N2CCCCC21 (stereo unspecified)
- Potency [1]: inconclusive: 17.8 µM [inhibitor, full curve, poor fit]

SMILES: O=[S+]1([O-])NC2(CCN(Cc3ccc(C(F)(F)F)cc3)C2)COc2ncccc21 (stereo unspecified)
- Potency [1]: inconclusive: 100 µM [inhibitor, partial curve, poor fit]

SMILES: CC(=O)c1c(C)[nH]c(C(=O)OCc2ccc(Br)cc2)c1C
- Potency [1]: inactive

SMILES: CCCCNC(=O)O[C@H]1CC[C@@]23CCCN2C(=O)CCC[C@H]3[C@H]1Cc1ccccc1
- Potency [1]: inconclusive: 63.1 µM [inhibitor, partial curve, poor fit]

SMILES: COc1ccc(NS(=O)(=O)c2cc(-c3cnc(C4CC4)o3)ccc2C)cc1
- activity change, negative = inhibition [1]: inconclusive: -37.8% [inhibitor]
- activity change, negative = inhibition (at 108 µM (top of the series)): inactive: 1.51%

SMILES: Cc1cc(C(=O)CN2CCN(CC(=O)Nc3ccc(F)cc3)CC2)c(C)n1CCc1cccs1
- Potency [1]: inconclusive: 44.7 µM [inhibitor, partial curve, poor fit]

SMILES: Nc1c(-c2nn[nH]n2)cnn1-c1cc(Cl)cc(Cl)c1
- Potency [1]: inconclusive: 31.6 µM [inhibitor, single point]

SMILES: O=C(NCc1n[nH]c(=S)n1-c1ccc(F)cc1)c1ccc(S(=O)(=O)N2CCCC2)cc1
- Potency [1]: inconclusive: 112 µM [inhibitor, partial curve, poor fit]

SMILES: Cc1ccccc1CNC(=O)c1cc2cn(C(C)C)cc2s1
- Potency [1]: inconclusive: 15.8 µM [inhibitor, full curve]

SMILES: COCCN1C(=O)C(=O)/C(=C(/O)c2cccc(S(=O)(=O)N(C)C)c2)C12C(=O)N(C)c1ccccc12 (stereo unspecified)
- Potency [1]: inconclusive: 141 µM [inhibitor, partial curve, poor fit]

SMILES: COc1ccc(NC(=O)N(C)C[C@H]2Oc3c(NS(=O)(=O)c4cccs4)cccc3C(=O)N([C@H](C)CO)C[C@@H]2C)cc1
- Potency [1]: inactive

SMILES: O=C1N=C(N2CCOCC2)S/C1=C\c1ccc(-c2ccccc2Cl)o1
- Potency [1]: inconclusive: 44.7 µM [inhibitor, partial curve]

SMILES: O=C(c1ccc(Cl)c([N+](=O)[O-])c1)N(Cc1ccc(Cl)cc1)C1CCS(=O)(=O)C1 (stereo unspecified)
- Potency [1]: inactive

SMILES: CCOC(=O)c1sc2nc(OCc3cccnc3)cc(C)c2c1N
- Potency [1]: inconclusive: 79.4 µM [inhibitor, partial curve, poor fit]

SMILES: CNC(=S)NNC(=O)COc1ccc(C)c(C)c1
- Potency [1]: inactive

SMILES: CC1CCCC/C1=N\NS(=O)(=O)c1ccc(Br)cc1 (stereo unspecified)
- Potency [1]: inconclusive: 31.6 µM [inhibitor, partial curve, poor fit]

SMILES: Cc1ccc(Cn2c(=N)c(C(=O)NCc3ccco3)cc3c(=O)n4ccccc4nc32)cc1
- Potency [1]: inconclusive: 39.8 µM [inhibitor, partial curve, poor fit]

SMILES: COc1cccc(C(=O)c2cn(CC(=O)Nc3cccc(Cl)c3C)c3nc(C)ccc3c2=O)c1
- Potency [1]: inconclusive: 100 µM [inhibitor, partial curve, poor fit]

SMILES: CCOC(=O)C[C@H]1c2cc(F)ccc2S(=O)(=O)N1c1ccccc1
- Potency [1]: inconclusive: 89.1 µM [inhibitor, partial curve, poor fit]

SMILES: O=C(CCc1ncc(-c2c(F)cccc2F)o1)NCC(=O)Nc1ccccc1Br
- Potency [1]: inconclusive: 44.7 µM [inhibitor, partial curve, poor fit]

SMILES: Cc1nc(-c2cccs2)sc1C(=O)NN
- Potency [1]: inactive

SMILES: CCOc1c2ccc(C(=O)NCc3cc(C(F)(F)F)cc(C(F)(F)F)c3)cc2nn1CCOC
- Potency [1]: inactive

SMILES: CC(NC(=O)CN1CCOCC1)c1ccc(F)cc1 (stereo unspecified)
- Potency [1]: inconclusive: 126 µM [inhibitor, single point]

SMILES: COc1ccc(NC(=O)CCC(=O)Nc2cc(OC)c(NC(=O)c3ccco3)cc2OC)c(OC)c1
- Potency [1]: inconclusive: 39.8 µM [inhibitor, partial curve, poor fit]

SMILES: COc1cccc(N2CCN(c3nc(C(=O)NCc4ccccc4F)cs3)CC2)c1
- Potency [1]: inactive

SMILES: CC(C)C(NC(=O)c1ccc(-c2ccccc2)cc1)C(=O)O (stereo unspecified)
- Potency [1]: inactive

SMILES: COc1cc([N+](=O)[O-])ccc1N=Nc1c(N)[nH]n(-c2ccccc2)c1=O
- Potency [1]: inactive

SMILES: O=C(CSc1nc(-c2ccccc2)cc(=O)[nH]1)Nc1ccccc1
- Potency [1]: inconclusive: 141 µM [inhibitor, single point]

SMILES: Cc1ccc(C(=O)OCC(=O)Nc2ncc(Cl)cc2Cl)cc1NC(=O)c1ccco1
- Potency [1]: inconclusive: 22.4 µM [inhibitor, partial curve]

SMILES: CCOc1ccc(NC(=S)NCc2ccc3[nH]c(C)cc3c2)cc1
- Potency [1]: active: 10 µM

SMILES: O=C(/C=C/c1ccc(OCc2ccccc2)cc1)c1ccc(N2CCOCC2)cc1
- Potency [1]: inconclusive: 35.5 µM [inhibitor, partial curve, poor fit]

SMILES: S=c1[nH]nc(-c2cc(-c3ccccc3)n[nH]2)n1/N=C/c1cccc(Cl)c1
- Potency [1]: inconclusive: 39.8 µM [inhibitor, partial curve, poor fit]
